Data taken from paper PMC4396695, “Structure of the Ribosomal Oxygenase OGFOD1 Provides Insights into the Regio- and Stereoselectivity of Prolyl Hydroxylases” (Structure(London, England:1993), 2015).
No constants are given. Whether binding was seen depends on the method and setting.

Molecular target: T1, OGFOD1 (human uS12 prolyl 3-hydroxylase) (human), Q8N543
T1 chain: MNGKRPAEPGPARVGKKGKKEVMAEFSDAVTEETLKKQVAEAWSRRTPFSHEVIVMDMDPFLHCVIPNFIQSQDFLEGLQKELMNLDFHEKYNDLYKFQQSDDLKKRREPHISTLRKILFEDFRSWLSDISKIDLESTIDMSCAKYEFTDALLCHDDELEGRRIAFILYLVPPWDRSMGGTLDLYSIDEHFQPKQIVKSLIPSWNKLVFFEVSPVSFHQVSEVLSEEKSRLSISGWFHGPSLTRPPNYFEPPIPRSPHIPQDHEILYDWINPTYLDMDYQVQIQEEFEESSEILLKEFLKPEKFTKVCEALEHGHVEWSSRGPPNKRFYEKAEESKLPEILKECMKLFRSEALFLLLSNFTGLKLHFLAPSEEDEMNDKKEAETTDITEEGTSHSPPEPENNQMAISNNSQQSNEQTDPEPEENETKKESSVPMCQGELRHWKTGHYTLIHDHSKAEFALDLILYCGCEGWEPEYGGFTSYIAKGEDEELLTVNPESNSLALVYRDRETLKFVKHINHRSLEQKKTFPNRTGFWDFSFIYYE
Assay: native gel or EMSA; non-denaturing PAGE of OGFOD1 and of Tpa1p, each run alone; conditions not given; both purified
Details: remark: other sources report otherwise

B1: OGFOD1 (human uS12 prolyl 3-hydroxylase), Q8N543 1-542 (enzyme)
chain: MNGKRPAEPGPARVGKKGKKEVMAEFSDAVTEETLKKQVAEAWSRRTPFSHEVIVMDMDPFLHCVIPNFIQSQDFLEGLQKELMNLDFHEKYNDLYKFQQSDDLKKRREPHISTLRKILFEDFRSWLSDISKIDLESTIDMSCAKYEFTDALLCHDDELEGRRIAFILYLVPPWDRSMGGTLDLYSIDEHFQPKQIVKSLIPSWNKLVFFEVSPVSFHQVSEVLSEEKSRLSISGWFHGPSLTRPPNYFEPPIPRSPHIPQDHEILYDWINPTYLDMDYQVQIQEEFEESSEILLKEFLKPEKFTKVCEALEHGHVEWSSRGPPNKRFYEKAEESKLPEILKECMKLFRSEALFLLLSNFTGLKLHFLAPSEEDEMNDKKEAETTDITEEGTSHSPPEPENNQMAISNNSQQSNEQTDPEPEENETKKESSVPMCQGELRHWKTGHYTLIHDHSKAEFALDLILYCGCEGWEPEYGGFTSYIAKGEDEELLTVNPESNSLALVYRDRETLKFVKHINHRSLEQKKTFPNRTGFWDFSFIYYE
In the case of B1, the binding is reported as “no binding”.
